# Drug screen on melanoma cell lines: apoptosis marker

Values as published with doi:10.1371/journal.pone.0140310, rounded.

First drug in all entries: stibogluconate, 10 µM, O=C(O)[C@@H]1[O][Sb](=[O])([O][Sb]2(=[O])[O][C@H]([C@H](O)CO)[C@H](O)[C@H](C(=O)O)[O]2)[O][C@H]([C@H](O)CO)[C@@H]1O (some centres unmarked)

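Human melanoma cells were exposed to a pair of drugs for 72 h in 1,536-well plates and read by automated microscopy after fixing and staining. Values are the share of nuclei positive for cleaved PARP as a percentage of the same share in the DMSO control: 100 is the control level, higher means more apoptosis. Every drug was used at one fixed concentration, the higher of two screened. The file gives one value for each pair and line, without errors, so small differences may be noise. Basal and induced levels differ widely between cell lines.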
This is part of the screen, not chosen by result.

Nc1nc(F)nc2c1ncn2[C@@H]1O[C@H](CO)[C@@H](O)[C@@H]1O at 1 µM gave COLO 829: 31.2; WM3619: 74.5; WM451Lu: 93.7; SK-MEL-30: 738.
CN1CCN(c2ccc3nc(-c4c(N)c5c(F)cccc5[nH]c4=O)[nH]c3c2)CC1 at 0.5 µM gave COLO 829: 307; WM3619: 140; WM451Lu: 170; SK-MEL-30: 129.
COc1ccc(C2=N[C@@H](c3ccc(Cl)cc3)[C@@H](c3ccc(Cl)cc3)N2C(=O)N2CCNC(=O)C2)c(OC(C)C)c1 at 0.5 µM gave COLO 829: 81.8; WM3619: 123; WM451Lu: 77.3; SK-MEL-30: 57.7.
COc1cc2c(Oc3ccc4[nH]c(C)cc4c3F)ncnc2cc1OCCCN1CCCC1 at 2 µM gave COLO 829: 58.3; WM3619: 66.2; WM451Lu: 144; SK-MEL-30: 135.
O=C(Nc1ccccc1)c1cc([N+](=O)[O-])ccc1Cl at 10 µM gave COLO 829: 90.1; WM3619: 114; WM451Lu: 218; SK-MEL-30: 109.
COc1cc(N2CCC(N3CCN(C)CC3)CC2)ccc1Nc1ncc(Cl)c(Nc2ccccc2S(=O)(=O)C(C)C)n1 at 0.4 µM gave COLO 829: 132; WM3619: 127; WM451Lu: 208; SK-MEL-30: 88.0.
CC(C)CCN1c2nc(Nc3cc(F)c(O)c(F)c3)ncc2N(C)C(=O)C1C (centres unmarked) at 1 µM gave COLO 829: 78.3; WM3619: 102; WM451Lu: 72.0; SK-MEL-30: 61.5.
CS(=O)(=O)c1ccc(C(=O)Nc2ccc(Cl)c(-c3ccccn3)c2)c(Cl)c1 at 5 µM gave COLO 829: 80.8; WM3619: 87.7; WM451Lu: 91.0; SK-MEL-30: 66.4.
Cn1cnc2c(F)c(Nc3ccc(Br)cc3Cl)c(C(=O)NOCCO)cc21 at 0.075 µM gave COLO 829: 138; WM3619: 136; WM451Lu: 303; SK-MEL-30: 195.
O=C(Nc1cccc(Cl)c1)Nc1ncc(CCNc2ncnc3ccsc23)s1 at 0.004 µM gave COLO 829: 97.8; WM3619: 134; WM451Lu: 82.0; SK-MEL-30: 94.8.
CCN(CC)CCNC(=O)c1c(C)[nH]c(/C=C2\C(=O)Nc3ccc(F)cc32)c1C at 2 µM gave COLO 829: 85.5; WM3619: 129; WM451Lu: 43.6; SK-MEL-30: 444.
COc1ccc(-c2ccc3c(N4CCOCC4)nc(N4C[C@@H](C)O[C@@H](C)C4)nc3n2)cc1CO at 0.1 µM gave COLO 829: 80.5; WM3619: 89.5; WM451Lu: 66.1; SK-MEL-30: 115.
CCN(CC)CCCCNc1ncc2cc(-c3cc(OC)cc(OC)c3)c(NC(=O)NC(C)(C)C)nc2n1 at 0.5 µM gave COLO 829: 56.3; WM3619: 91.4; WM451Lu: 173; SK-MEL-30: 87.2.
C=CCNC1=C2C[C@@H](C)C[C@H](OC)[C@H](O)[C@@H](C)/C=C(\C)[C@H](OC(N)=O)[C@@H](OC)/C=C\C=C(/C)C(=O)NC(=CC1=O)C2=O at 0.01 µM gave COLO 829: 40.9; WM3619: 113; WM451Lu: 105; SK-MEL-30: 84.7.
Cn1nnc2c(C(N)=O)ncn2c1=O at 10 µM gave COLO 829: 160; WM3619: 121; WM451Lu: 93.8; SK-MEL-30: 187.
Clc1ccc(Nc2nnc(Cc3ccncc3)c3ccccc23)cc1 at 10 µM gave COLO 829: 83.7; WM3619: 111; WM451Lu: 185; SK-MEL-30: 95.2.
CS(=O)(=O)CCNCc1ccc(-c2ccc3ncnc(Nc4ccc(OCc5cccc(F)c5)c(Cl)c4)c3c2)o1 at 4 µM gave COLO 829: 129; WM3619: 125; WM451Lu: 123; SK-MEL-30: 151.
CO[C@H]1C[C@@H]2CC[C@@H](C)[C@@](O)(O2)C(=O)C(=O)N2CCCC[C@H]2C(=O)O[C@H]([C@H](C)C[C@@H]2CC[C@@H](OCCO)[C@H](OC)C2)CC(=O)[C@H](C)/C=C(\C)[C@@H](O)[C@@H](OC)C(=O)[C@H](C)C[C@H](C)/C=C/C=C/C=C/1C at 0.1 µM gave COLO 829: 92.4; WM3619: 110; WM451Lu: 314; SK-MEL-30: 58.4.
COc1ccc(COc2ccc(Cc3cnc(N)nc3N)cc2OC)cc1 at 5 µM gave COLO 829: 110; WM3619: 97.5; WM451Lu: 57.4; SK-MEL-30: 67.8.
C[As](C)SC[C@H](NC(=O)CC[C@H](N)C(=O)O)C(=O)NCC(=O)O at 2 µM gave COLO 829: 80.5; WM3619: 90.2; WM451Lu: 94.7; SK-MEL-30: 81.2.
CCCCCCCCc1ccc(CCC(N)(CO)CO)cc1 at 10 µM gave COLO 829: 102; WM3619: 475; WM451Lu: 290; SK-MEL-30: 2030.
CCCCCCCCCCCC1=C(O)C(=O)C=C(O)C1=O at 6 µM gave COLO 829: 134; WM3619: 126; WM451Lu: 150; SK-MEL-30: 101.
N#CC[C@H](C1CCCC1)n1cc(-c2ncnc3[nH]ccc23)cn1 at 5 µM gave COLO 829: 51.2; WM3619: 86.5; WM451Lu: 149; SK-MEL-30: 170.
Cc1nc(Nc2ncc(C(=O)Nc3c(C)cccc3Cl)s2)cc(N2CCN(CCO)CC2)n1 at 0.02 µM gave COLO 829: 409; WM3619: 143; WM451Lu: 60.0; SK-MEL-30: 62.5.
O=C1NC(=O)/C(=C/c2ccc(-c3ccc(F)cc3O)o2)S1 at 5 µM gave COLO 829: 73.4; WM3619: 113; WM451Lu: 46.6; SK-MEL-30: 160.
C[C@@H](Oc1cc(-c2cnn(C3CCNCC3)c2)cnc1N)c1c(Cl)ccc(F)c1Cl at 1 µM gave COLO 829: 107; WM3619: 168; WM451Lu: 35.5; SK-MEL-30: 95.5.
Cn1c(=O)n(-c2ccc(C(C)(C)C#N)cc2)c2c3cc(-c4cnc5ccccc5c4)ccc3ncc21 at 0.02 µM gave COLO 829: 63.8; WM3619: 146; WM451Lu: 220; SK-MEL-30: 181.
Cc1cc(SCc2sc(-c3ccc(C(F)(F)F)c(F)c3)nc2C)ccc1OCC(=O)O at 10 µM gave COLO 829: 26.9; WM3619: 79.8; WM451Lu: 113; SK-MEL-30: 82.0.
NC1(c2ccc(-c3nc4ccn5c(=O)[nH]nc5c4cc3-c3ccccc3)cc2)CCC1 at 2 µM gave COLO 829: 160; WM3619: 105; WM451Lu: 78.9; SK-MEL-30: 55.6.

The last 2 entries again:

| Second drug | COLO 829 | WM3619 | WM451Lu | SK-MEL-30 |
|---|---|---|---|---|
| Cc1cc(SCc2sc(-c3ccc(C(F)(F)F)c(F)c3)nc2C)ccc1OCC(=O)O at 10 µM | 26.9 | 79.8 | 113 | 82.0 |
| NC1(c2ccc(-c3nc4ccn5c(=O)[nH]nc5c4cc3-c3ccccc3)cc2)CCC1 at 2 µM | 160 | 105 | 78.9 | 55.6 |